Experiment [1] addresses T1, GIGANTEA, HA-tagged (GI-HA) (Arabidopsis thaliana) (UniProt Q9SQI2).
T1 sequence: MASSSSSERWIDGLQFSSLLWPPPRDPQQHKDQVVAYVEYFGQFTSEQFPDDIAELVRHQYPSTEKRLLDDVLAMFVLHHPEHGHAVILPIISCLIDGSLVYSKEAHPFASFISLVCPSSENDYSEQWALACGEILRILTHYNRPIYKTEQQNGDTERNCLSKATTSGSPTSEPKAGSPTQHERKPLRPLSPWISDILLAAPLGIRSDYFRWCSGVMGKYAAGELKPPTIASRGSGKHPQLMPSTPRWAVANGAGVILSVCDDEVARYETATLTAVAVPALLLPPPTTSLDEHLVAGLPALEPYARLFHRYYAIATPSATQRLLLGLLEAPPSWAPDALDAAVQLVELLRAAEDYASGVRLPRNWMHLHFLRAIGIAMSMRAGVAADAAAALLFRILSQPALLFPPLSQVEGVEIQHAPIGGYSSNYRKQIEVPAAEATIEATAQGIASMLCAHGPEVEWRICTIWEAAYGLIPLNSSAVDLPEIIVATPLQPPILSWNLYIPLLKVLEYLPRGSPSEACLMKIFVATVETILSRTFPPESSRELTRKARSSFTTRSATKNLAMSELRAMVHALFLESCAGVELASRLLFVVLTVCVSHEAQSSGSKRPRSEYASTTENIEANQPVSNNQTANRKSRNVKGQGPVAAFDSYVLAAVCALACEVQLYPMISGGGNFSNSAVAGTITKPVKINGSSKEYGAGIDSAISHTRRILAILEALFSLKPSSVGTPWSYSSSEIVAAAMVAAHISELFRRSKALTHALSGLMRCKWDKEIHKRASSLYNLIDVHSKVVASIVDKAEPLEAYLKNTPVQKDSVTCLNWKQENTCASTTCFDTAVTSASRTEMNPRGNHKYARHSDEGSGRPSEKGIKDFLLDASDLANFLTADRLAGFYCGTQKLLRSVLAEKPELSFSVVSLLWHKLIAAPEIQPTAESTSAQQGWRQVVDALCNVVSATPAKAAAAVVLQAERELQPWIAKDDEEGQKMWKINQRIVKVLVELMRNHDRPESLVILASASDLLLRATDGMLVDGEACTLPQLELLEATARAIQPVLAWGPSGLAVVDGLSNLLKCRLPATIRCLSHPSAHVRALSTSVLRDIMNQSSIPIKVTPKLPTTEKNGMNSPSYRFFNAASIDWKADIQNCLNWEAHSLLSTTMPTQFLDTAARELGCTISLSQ
Put plainly: co-IP; total proteins of N. benthamiana leaves transiently expressing both proteins; GI-HA precipitated with anti-HA on protein A agarose, SOS3 detected with anti-MYC; leaves untreated or treated with 100 mM NaCl for 8 h or 3 mM CaCl2; extraction buffer 100 mM Tris-HCl pH 7.5, 150 mM NaCl, 0.5% NP-40, 1 mM EDTA, 3 mM DTT; 4°C.

Protein sequences, listed by entry. Tags and fused reporters are not part of them.
UniProt Q9C9W9: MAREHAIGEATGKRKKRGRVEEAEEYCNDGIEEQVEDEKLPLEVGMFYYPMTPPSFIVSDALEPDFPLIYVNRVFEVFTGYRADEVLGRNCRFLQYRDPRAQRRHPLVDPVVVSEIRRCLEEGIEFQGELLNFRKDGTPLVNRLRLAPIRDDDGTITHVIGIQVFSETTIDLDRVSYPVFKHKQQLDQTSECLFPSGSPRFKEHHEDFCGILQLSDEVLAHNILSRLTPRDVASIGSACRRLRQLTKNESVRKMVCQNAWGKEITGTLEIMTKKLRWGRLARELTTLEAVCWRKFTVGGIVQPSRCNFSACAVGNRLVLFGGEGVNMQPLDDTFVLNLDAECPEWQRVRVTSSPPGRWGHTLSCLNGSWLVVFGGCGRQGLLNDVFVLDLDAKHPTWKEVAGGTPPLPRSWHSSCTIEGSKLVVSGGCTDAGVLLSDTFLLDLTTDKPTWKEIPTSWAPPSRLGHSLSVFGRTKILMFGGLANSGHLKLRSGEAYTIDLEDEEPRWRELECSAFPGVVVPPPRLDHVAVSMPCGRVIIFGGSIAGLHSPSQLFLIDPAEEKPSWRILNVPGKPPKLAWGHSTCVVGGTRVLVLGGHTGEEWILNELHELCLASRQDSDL

Experiment [2] concerns the target FKF1, split-Venus BiFC fusion (Arabidopsis thaliana) (UniProt Q9C9W9). Put plainly: split reporter; BiFC with split Venus in N. benthamiana leaves; fluorescence detected on the third day after infiltration.
Experiment [3] deals with T2, GIGANTEA, BiFC fusion (Arabidopsis thaliana) (UniProt Q9SQI2).
T2 sequence: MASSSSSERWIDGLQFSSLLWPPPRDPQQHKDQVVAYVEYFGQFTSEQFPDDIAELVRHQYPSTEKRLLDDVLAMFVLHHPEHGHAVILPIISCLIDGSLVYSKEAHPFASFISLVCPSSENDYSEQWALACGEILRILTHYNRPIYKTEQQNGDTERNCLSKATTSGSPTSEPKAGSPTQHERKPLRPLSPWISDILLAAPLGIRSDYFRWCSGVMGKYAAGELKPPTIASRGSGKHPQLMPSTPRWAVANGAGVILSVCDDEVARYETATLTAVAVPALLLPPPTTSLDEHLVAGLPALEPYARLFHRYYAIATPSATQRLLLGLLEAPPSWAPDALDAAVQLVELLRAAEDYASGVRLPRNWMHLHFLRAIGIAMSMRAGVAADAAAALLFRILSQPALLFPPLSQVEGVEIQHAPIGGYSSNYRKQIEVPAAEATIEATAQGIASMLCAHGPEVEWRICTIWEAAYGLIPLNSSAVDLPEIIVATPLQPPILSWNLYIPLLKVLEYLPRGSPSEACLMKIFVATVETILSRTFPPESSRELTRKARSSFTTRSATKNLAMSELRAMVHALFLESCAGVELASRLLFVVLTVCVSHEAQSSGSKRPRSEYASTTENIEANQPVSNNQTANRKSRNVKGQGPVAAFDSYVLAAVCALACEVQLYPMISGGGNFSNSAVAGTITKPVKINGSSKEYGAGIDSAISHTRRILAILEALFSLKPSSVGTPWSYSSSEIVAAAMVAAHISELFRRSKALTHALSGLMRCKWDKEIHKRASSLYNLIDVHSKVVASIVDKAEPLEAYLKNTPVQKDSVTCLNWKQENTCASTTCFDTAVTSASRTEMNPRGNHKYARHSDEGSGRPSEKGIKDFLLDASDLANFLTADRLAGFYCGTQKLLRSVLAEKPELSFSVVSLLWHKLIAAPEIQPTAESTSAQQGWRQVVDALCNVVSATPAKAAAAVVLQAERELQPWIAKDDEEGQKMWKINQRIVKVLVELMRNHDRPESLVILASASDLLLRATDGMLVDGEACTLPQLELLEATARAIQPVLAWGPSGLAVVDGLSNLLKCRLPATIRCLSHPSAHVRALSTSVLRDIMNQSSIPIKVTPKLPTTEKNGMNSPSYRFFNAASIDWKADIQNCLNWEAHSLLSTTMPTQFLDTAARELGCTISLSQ
Nature of the experiment: split reporter; BiFC in N. benthamiana leaves, transient expression, YFP signals under a confocal microscope; leaves untreated or treated with NaCl or Ca2+ (Supplemental Figure S6, Figure 6D, Supplemental Figure S10).

Experiment [4] addresses T3, SOS2/CIPK24, BiFC fusion (Arabidopsis thaliana) (UniProt Q9LDI3).
T3 sequence: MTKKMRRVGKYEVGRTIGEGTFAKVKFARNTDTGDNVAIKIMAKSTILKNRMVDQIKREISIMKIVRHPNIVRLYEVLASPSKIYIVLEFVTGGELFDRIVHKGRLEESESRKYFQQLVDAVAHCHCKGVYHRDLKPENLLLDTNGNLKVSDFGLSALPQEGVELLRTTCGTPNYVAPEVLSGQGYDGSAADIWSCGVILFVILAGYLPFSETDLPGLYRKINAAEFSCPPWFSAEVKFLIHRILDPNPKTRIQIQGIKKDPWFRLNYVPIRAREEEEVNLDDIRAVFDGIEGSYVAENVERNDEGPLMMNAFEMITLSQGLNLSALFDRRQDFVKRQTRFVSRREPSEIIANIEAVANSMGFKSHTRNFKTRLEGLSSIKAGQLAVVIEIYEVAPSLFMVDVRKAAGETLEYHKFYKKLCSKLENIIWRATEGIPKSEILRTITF
The description is as above.

Experiment [5] addresses SOS3-FLAG (Arabidopsis thaliana) (UniProt O81223). Put plainly: co-IP; total proteins of N. benthamiana leaves transiently co-expressing SOS3-FLAG with GI-HA and/or FKF1-MYC; immunoprecipitation with anti-FLAG; leaves untreated or treated with 100 mM NaCl for 8 h.
Experiment [6] deals with SOS3-G2A-GFP (Arabidopsis thaliana) (UniProt O81223). Nature of the experiment: co-IP; total proteins of N. benthamiana leaves transiently co-expressing GI-HA and GFP-tagged SOS3 proteins; immunoprecipitation with anti-GFP.
Experiment [7] addresses SOS3-GFP (Arabidopsis thaliana) (UniProt O81223). Described as above.
Experiment [8] concerns the target SOS3-C3A-GFP (Arabidopsis thaliana) (UniProt O81223). The experiment is described as above.

No constants are given. Whether binding was seen depends on the method and setting. In cells and extracts the contact can be indirect. Some entries that bind do so weakly or less than the wild type. For some of these results: Tags and fused reporters may be left off the sequences shown.

With “SALT OVERLY …3/CALCINEURIN B-LIKE4, MYC-tagged (SOS3-MYC) (from UniProt O81223 1-222)”, the binding entry in experiment [1] is given as “binds”. Turning to “SOS3, split-Venus BiFC fusion (used with FKF1) (from UniProt O81223 1-222)”, the binding result in experiment [2] is “binds”. In the case of “SOS3-G2A, BiFC fusion (from UniProt O81223 1-222)”, the binding result in experiment [3] and in experiment [4] was “binds” throughout. For the molecule “FLAVIN-BINDING, KELCH REPEAT, F-BOX1, MYC-tagged (FKF1-MYC) (from UniProt Q9C9W9 1-619)”, the binding result in experiment [5] is “binds”. In the case of “SOS3-C3A, BiFC fusion (from UniProt O81223 1-222)”, the binding entry in experiment [3] and in experiment [4] was “binds” each time. As to “SOS3, BiFC fusion (used with GI and SOS2) (from UniProt O81223 1-222)”, the binding result in experiment [3] and in experiment [4] was “binds” each time.

B1: GIGANTEA, HA-tagged (GI-HA) (protein, UniProt Q9SQI2 1-1173)
chain: MASSSSSERWIDGLQFSSLLWPPPRDPQQHKDQVVAYVEYFGQFTSEQFPDDIAELVRHQYPSTEKRLLDDVLAMFVLHHPEHGHAVILPIISCLIDGSLVYSKEAHPFASFISLVCPSSENDYSEQWALACGEILRILTHYNRPIYKTEQQNGDTERNCLSKATTSGSPTSEPKAGSPTQHERKPLRPLSPWISDILLAAPLGIRSDYFRWCSGVMGKYAAGELKPPTIASRGSGKHPQLMPSTPRWAVANGAGVILSVCDDEVARYETATLTAVAVPALLLPPPTTSLDEHLVAGLPALEPYARLFHRYYAIATPSATQRLLLGLLEAPPSWAPDALDAAVQLVELLRAAEDYASGVRLPRNWMHLHFLRAIGIAMSMRAGVAADAAAALLFRILSQPALLFPPLSQVEGVEIQHAPIGGYSSNYRKQIEVPAAEATIEATAQGIASMLCAHGPEVEWRICTIWEAAYGLIPLNSSAVDLPEIIVATPLQPPILSWNLYIPLLKVLEYLPRGSPSEACLMKIFVATVETILSRTFPPESSRELTRKARSSFTTRSATKNLAMSELRAMVHALFLESCAGVELASRLLFVVLTVCVSHEAQSSGSKRPRSEYASTTENIEANQPVSNNQTANRKSRNVKGQGPVAAFDSYVLAAVCALACEVQLYPMISGGGNFSNSAVAGTITKPVKINGSSKEYGAGIDSAISHTRRILAILEALFSLKPSSVGTPWSYSSSEIVAAAMVAAHISELFRRSKALTHALSGLMRCKWDKEIHKRASSLYNLIDVHSKVVASIVDKAEPLEAYLKNTPVQKDSVTCLNWKQENTCASTTCFDTAVTSASRTEMNPRGNHKYARHSDEGSGRPSEKGIKDFLLDASDLANFLTADRLAGFYCGTQKLLRSVLAEKPELSFSVVSLLWHKLIAAPEIQPTAESTSAQQGWRQVVDALCNVVSATPAKAAAAVVLQAERELQPWIAKDDEEGQKMWKINQRIVKVLVELMRNHDRPESLVILASASDLLLRATDGMLVDGEACTLPQLELLEATARAIQPVLAWGPSGLAVVDGLSNLLKCRLPATIRCLSHPSAHVRALSTSVLRDIMNQSSIPIKVTPKLPTTEKNGMNSPSYRFFNAASIDWKADIQNCLNWEAHSLLSTTMPTQFLDTAARELGCTISLSQ
With B1, the binding result in experiment [5], in experiment [6], in experiment [7] and in experiment [8] was “binds” each time.

Source of the values: article PMC9806564.
